Reference: paper PMC9599549
These are yes or no findings as the source states them, for the method shown. In cells and extracts the contact can be indirect. Some binding calls cover weakened binding; strength is not graded here. Tags and fused reporters may be left off the sequences shown.

Protein sequences, listed by entry. Tags and fused reporters are not part of them.
UniProt Q9UN81: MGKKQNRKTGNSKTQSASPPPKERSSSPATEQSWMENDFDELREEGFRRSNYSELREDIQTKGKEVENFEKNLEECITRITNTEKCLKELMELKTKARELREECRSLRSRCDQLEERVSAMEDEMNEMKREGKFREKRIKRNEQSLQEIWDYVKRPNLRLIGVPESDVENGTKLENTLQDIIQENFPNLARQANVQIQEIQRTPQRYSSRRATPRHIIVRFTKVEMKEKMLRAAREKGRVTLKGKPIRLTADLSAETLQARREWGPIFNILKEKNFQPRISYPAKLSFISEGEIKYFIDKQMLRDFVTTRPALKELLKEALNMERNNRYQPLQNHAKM

Target: T1, TREX1 with an HA tag at its C terminus (vrTREX1-HA) (UniProt Q9NSU2)
T1 sequence: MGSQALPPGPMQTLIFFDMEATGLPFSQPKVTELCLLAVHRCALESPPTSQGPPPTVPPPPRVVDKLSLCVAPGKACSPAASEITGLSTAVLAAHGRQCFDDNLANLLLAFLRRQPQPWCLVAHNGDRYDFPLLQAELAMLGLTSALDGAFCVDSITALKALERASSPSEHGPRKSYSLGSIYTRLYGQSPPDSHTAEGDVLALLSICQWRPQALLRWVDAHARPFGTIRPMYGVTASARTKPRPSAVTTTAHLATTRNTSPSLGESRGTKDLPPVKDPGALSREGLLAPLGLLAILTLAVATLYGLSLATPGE
Assay: co-IP; HEK293T cells transfected with TREX1 (600 ng), Nef (500 ng) and/or ORF1p-expressing vectors (400 ng), harvested at 48 h; lysis in 50 mM Tris-HCl pH 7.5, 150 mM NaCl, 0.5% NP-40; anti-HA magnetic beads overnight; six washes (20 mM Tris-HCl pH 7.5, 100 mM NaCl, 0.1 mM EDTA, 0.05% Tween 20); elution with 50 mM glycine-HCl pH 2.5; Western blot

binding: binds
Substance: LINE-1 open reading frame 1 protein (ORF1p) expressed from an ORF1p-expressing vector that is not named for the co-IP of Fig. 2E (from UniProt Q9UN81 1-338)
